Source: publication PMC6226489
No constants are given. Whether binding was seen depends on the method and setting. In cells and extracts the contact can be indirect. Some results given as binding are weak or reduced against the parent protein; the word gives no strength.

The chains behind the UniProt entries cited, without tags or fusion partners.
UniProt Q9QZS3: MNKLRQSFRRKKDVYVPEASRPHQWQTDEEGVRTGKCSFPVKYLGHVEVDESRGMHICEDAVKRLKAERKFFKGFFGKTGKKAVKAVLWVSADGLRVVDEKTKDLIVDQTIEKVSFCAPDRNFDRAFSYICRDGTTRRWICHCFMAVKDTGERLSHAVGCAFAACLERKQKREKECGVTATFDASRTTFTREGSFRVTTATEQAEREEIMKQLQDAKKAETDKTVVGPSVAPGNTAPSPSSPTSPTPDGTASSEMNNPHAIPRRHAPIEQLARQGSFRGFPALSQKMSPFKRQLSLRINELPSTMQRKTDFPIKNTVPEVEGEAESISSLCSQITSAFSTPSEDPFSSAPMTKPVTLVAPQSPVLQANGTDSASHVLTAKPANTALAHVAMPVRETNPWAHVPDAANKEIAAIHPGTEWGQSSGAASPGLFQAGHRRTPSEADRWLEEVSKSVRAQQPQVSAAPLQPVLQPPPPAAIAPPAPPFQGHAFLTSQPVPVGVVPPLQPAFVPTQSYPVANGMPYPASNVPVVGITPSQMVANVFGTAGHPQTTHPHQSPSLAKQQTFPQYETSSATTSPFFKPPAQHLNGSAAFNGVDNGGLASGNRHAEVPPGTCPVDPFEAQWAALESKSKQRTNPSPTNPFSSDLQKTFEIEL
UniProt P46935: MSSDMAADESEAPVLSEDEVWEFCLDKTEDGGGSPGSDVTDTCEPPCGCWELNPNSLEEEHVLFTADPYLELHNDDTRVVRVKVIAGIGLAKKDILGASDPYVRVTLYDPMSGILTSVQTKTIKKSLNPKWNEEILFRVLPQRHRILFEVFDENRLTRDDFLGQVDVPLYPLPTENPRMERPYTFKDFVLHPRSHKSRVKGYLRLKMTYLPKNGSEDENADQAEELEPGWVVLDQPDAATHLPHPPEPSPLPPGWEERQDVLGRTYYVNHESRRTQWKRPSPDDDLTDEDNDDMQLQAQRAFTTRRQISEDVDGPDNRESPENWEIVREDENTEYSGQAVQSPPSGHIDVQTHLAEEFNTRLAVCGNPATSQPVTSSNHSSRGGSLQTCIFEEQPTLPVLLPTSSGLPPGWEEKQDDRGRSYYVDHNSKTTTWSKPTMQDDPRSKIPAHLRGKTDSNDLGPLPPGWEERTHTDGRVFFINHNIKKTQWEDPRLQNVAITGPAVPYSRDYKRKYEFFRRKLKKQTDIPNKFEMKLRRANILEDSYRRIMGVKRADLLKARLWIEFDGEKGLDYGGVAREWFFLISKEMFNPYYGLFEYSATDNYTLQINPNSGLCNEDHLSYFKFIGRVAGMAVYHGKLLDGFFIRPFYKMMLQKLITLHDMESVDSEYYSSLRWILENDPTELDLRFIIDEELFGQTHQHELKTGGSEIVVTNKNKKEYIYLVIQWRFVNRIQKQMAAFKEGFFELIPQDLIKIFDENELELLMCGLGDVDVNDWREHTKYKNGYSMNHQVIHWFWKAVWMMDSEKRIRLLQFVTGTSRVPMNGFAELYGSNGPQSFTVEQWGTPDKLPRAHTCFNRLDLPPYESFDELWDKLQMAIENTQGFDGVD

Key:
[1] = molecular target: phosphatase and tensin homologue deleted on human chromosome 10 (PTEN) (mouse (endogenous in primary calvaria osteoblasts)) (UniProt O08586); assay: co-IP; endogenous proteins in lysate of primary calvaria osteoblasts of two-month-old C57B6J mice; precleared with normal rabbit IgG and protein A + G agarose; immunoprecipitated overnight at 4 °C with anti-NUMB or anti-PTEN; washed five times; Western blot with anti-PTEN, anti-NUMB or anti-NEDD4
[2] = molecular target: NUMB (mouse (endogenous in primary calvaria osteoblasts)) (UniProt Q9QZS3); assay: as above

binding [1] | binding [2] | Substance
binds | – | NUMB (from UniProt Q9QZS3 1-653)
– | binds | phosphatase and tensin homologue deleted on human chromosome 10 (PTEN) (from UniProt O08586 1-403)
– | binds | neural precursor cell-expressed developmentally downregulated protein 4-1 (from UniProt P46935 1-887)
